PubChem BioAssay AID504764, Drosophila RNAi Screening Center | 2011

Purpose: 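Knock-downs that raise or lower a Notch target reporter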 (primary screen)
System: Drosophila Kc167 cells
Reagent: long dsRNA against Drosophila genes
Time to read-out: about 5 days (4 days dsRNA, then 24 h after transfection)
Challenge: transfection of constitutively active membrane-tethered Notch lacking the extracellular domain, read 24 h later
Read-out: 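Firefly luciferase from an E(spl)m3 reporter with active Notch, plus control-promoter and uninduced reporter wells for normalisation; unnormalised counts, duplicate wells a and b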
Direction: induced reporter light, run 1, well a and induced reporter light, run 1, well b: higher = more light from the Notch target reporter with active Notch; control promoter light, run 1, well a and control promoter light, run 1, well b: higher = more light from the viral control promoter (cell number, transfection, viability); uninduced reporter light, run 1, well a: higher = more light from the Notch target reporter without active Notch
Rule for the call: 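Wells with low control signal or poorly matching duplicates excluded; duplicates averaged; per source plate, z beyond ±2 for induced/control log2 ratio or beyond ±1.8 for induced/uninduced marks a hit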
Calls: active = modifier hit (raised or lowered Notch signal); inactive = not a hit
In all, the deposit lists about 22,000 reagents; this is a random part of those that have a named target and a result. Of all reagents, 403 (1.9%) are marked active. 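Unnormalised raw counts per well; ratio z-scores behind the hit calls and whether each hit raises or lowers signal are not deposited.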 A number with no mark means an inactive call. Not given: the amount of reagent.

Target gene | dsRNA | induced reporter light, run 1, well a | induced reporter light, run 1, well b | control promoter light, run 1, well a | control promoter light, run 1, well b | uninduced reporter light, run 1, well a
fs(1)Yb (female sterile (1) Yb) | DRSC18777 | 1.15e5 | 98840 | 1.21e5 | 1.71e5 | 7095
CG7920 | DRSC16346 | 1.57e5 | 1.78e5 | 2.24e5 | 2.02e5 | 11590
Prim1 (DNA primase subunit 1) | DRSC11137 | 1.56e5 | 1.97e5 | 1.88e5 | 1.78e5 | 14350
CG7251 | DRSC03039 | 1.84e5 | 2.01e5 | 1.81e5 | 1.57e5 | 15880
Ing3 (Inhibitor of growth family, member 3) | DRSC20002 | 1.42e5 | 1.64e5 | 1.41e5 | 90230 | 12320
CG32795 | DRSC18609 | 91210 | 1.09e5 | 1.40e5 | 1.08e5 | 6645
CG32795 | DRSC18610 | 89895 | 1.15e5 | 1.57e5 | 1.40e5 | 8020
CG30016 | DRSC05242 | 2.21e5 | 2.59e5 | 3.18e5 | 3.10e5 | 26485
CG30338 | DRSC05166 | 37970 | 55675 | 59560 | 66015 | 2750
CG34355 | DRSC13639 | 1.93e5 | 1.88e5 | 1.34e5 | 1.75e5 | 14700
CG34355 | DRSC14520 | 1.80e5 | 1.56e5 | 1.93e5 | 1.64e5 | 12535
CG34355 | DRSC14668 | 1.46e5 | 1.71e5 | 1.88e5 | 1.58e5 | 11820
CDase (Ceramidase) | DRSC14932 | 54995 | 53720 | 63375 | 66130 | 3785
CG11786 | DRSC14389 | 1.55e5 | 1.28e5 | 1.85e5 | 1.67e5 | 11365
GCC88 (GRIP and coiled-coil domain containing 88 kDa) | DRSC14264 | 66760 | 1.03e5 | 72760 | 60680 | 3540
CG5439 | DRSC02861 | 2.30e5 | 2.10e5 | 1.87e5 | 2.15e5 | 18182
Ldh (Lactate dehydrogenase) | DRSC11198 | 1.98e5 | 2.08e5 | 1.93e5 | 1.64e5 | 8750
Tsp96F (Tetraspanin 96F) | DRSC14147 | 2.11e5 | 2.26e5 | 3.01e5 | 2.69e5 | 14110
lost | DRSC12002 | 1.89e5 | 2.36e5 | 3.29e5 | 2.89e5 | 16680
lost | DRSC12234 | 1.06e5 | 82095 | 55300 | 69440 | 6635
Fitm (Fat storage inducing transmembrane protein) | DRSC09772 | 93605 | 1.25e5 | 67630 | 48915 | 10090
Rpt1 (Regulatory particle triple-A ATPase 1) | DRSC07542 | 42495 | 42490 | 38730 | 36190 | 4535
CG4610 | DRSC04477 | 1.71e5 | 2.03e5 | 1.67e5 | 1.79e5 | 13260
Sobp (Sine oculis-binding protein) | DRSC07312 | 1.08e5 | 1.20e5 | 1.08e5 | 87690 | 11075
CG32259 | DRSC08082 | 1.74e5 | 1.83e5 | 1.39e5 | 1.50e5 | 14510
Pli (Pellino) | DRSC16792 | 1.70e5 | 1.99e5 | 2.50e5 | 2.46e5 | 15295
CG3288 | DRSC11745 | 1.21e5 | 99390 | 94755 | 1.04e5 | 7780
Alp11 (Alkaline phosphatase 11) | DRSC20080 | 69810 | 73095 | 77470 | 64975 | 9595
mbm (mushroom body miniature) | DRSC00319 | 2.11e5 | 2.00e5 | 2.12e5 | 2.05e5 | 18440
Polr2G (RNA polymerase II subunit G) | DRSC16068 | 52920 | 45975 | 36155 | 32475 | 3610
Tspo (Translocator protein) | DRSC00533 | 1.28e5 | 1.40e5 | 1.14e5 | 1.17e5 | 10130

Individual results from above:
Under “control promoter light, run 1, well a”, mbm (mushroom body miniature) [DRSC00319] reads 2.12e5
Result of Ldh (Lactate dehydrogenase) [DRSC11198] under “induced reporter light, run 1, well b”: 2.08e5
For “induced reporter light, run 1, well b”, Tsp96F (Tetraspanin 96F) [DRSC14147] shows 2.26e5
lost [DRSC12234], induced reporter light, run 1, well b = 82095
Entry for Fitm (Fat storage inducing transmembrane protein) [DRSC09772] under “control promoter light, run 1, well b”: 48915
Entry of CG5439 [DRSC02861] in “induced reporter light, run 1, well a”: 2.30e5

Next reagents follow.
Target gene | dsRNA | induced reporter light, run 1, well a | induced reporter light, run 1, well b | control promoter light, run 1, well a | control promoter light, run 1, well b | uninduced reporter light, run 1, well a
CG14797 | DRSC17955 | 1.21e5 | 1.28e5 | 1.99e5 | 1.77e5 | 9245
grsm (granny smith) | DRSC14165 | 3.11e5 | 2.79e5 | 2.59e5 | 2.66e5 | 21350
grsm (granny smith) | DRSC14843 | 3.30e5 | 3.34e5 | 2.61e5 | 3.08e5 | 23395
pelo (pelota) | DRSC03588 | 2.21e5 | 2.18e5 | 2.30e5 | 2.01e5 | 17470
Rrp5 (Ribosomal RNA Processing 5) | DRSC15862 | 1.45e5 | 1.41e5 | 1.75e5 | 1.69e5 | 10540
RpL19 (Ribosomal protein L19) | DRSC04649 | 8935 | 8835 | 5475 | 6235 | 410
Pos (Poseidon) | DRSC15415 | 1.15e5 | 97845 | 1.49e5 | 1.41e5 | 8265
I-3 (Inhibitor-3) | DRSC20479 | 82320 | 81860 | 94310 | 1.13e5 | 9285
CG7720 | DRSC16306 | 2.50e5 | 2.63e5 | 2.97e5 | 3.82e5 | 19865
CG7720 | DRSC16307 | 1.92e5 | 1.49e5 | 2.92e5 | 2.96e5 | 14130
CG2186 | DRSC19838 | 2.36e5 | 1.91e5 | 2.32e5 | 1.95e5 | 12050
Gasp | DRSC12349 | 1.12e5 | 1.17e5 | 67030 | 73120 | 8760
CG14676 | DRSC12262 | 98750 | 1.14e5 | 1.38e5 | 99200 | 13485
CG1607 | DRSC15130 | 1.42e5 | 1.80e5 | 2.28e5 | 2.38e5 | 13620
CG17010 | DRSC02559 | 1.93e5 | 2.31e5 | 1.77e5 | 1.65e5 | 14668
ValRS (Valyl-tRNA synthetase) | DRSC06864 | 1.29e5 | 1.13e5 | 1.47e5 | 1.56e5 | 10010
GNBP-like3 (GNBP-like 3) | DRSC06385 | 1.15e5 | 1.09e5 | 1.18e5 | 1.23e5 | 8100
aln (allnighter) | DRSC08240 | 1.40e5 | 1.46e5 | 2.19e5 | 2.41e5 | 7020
MsR1 (Myosuppressin receptor 1) | DRSC08615 | 1.20e5 | 1.01e5 | 1.76e5 | 1.98e5 | 7295
